{"source": "PubChem BioAssay AID504786 (Drosophila RNAi Screening Center, 2011)", "aim": "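Knock-downs reducing HIF reporter induction by the iron chelator DFO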 (primary screen)", "cell system": "Drosophila S2 cells with a stable HIF luciferase reporter", "reagents": "long dsRNA against Drosophila genes, about 0.2 µg dsRNA per well of a 384-well plate", "timing": "three days of knock-down, then 20 h of DFO before reading", "treatment": "desferrioxamine (DFO) at 100 µM, an iron chelator that mimics hypoxia, for 20 h", "measured": "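Firefly luciferase driven by the mouse ldh-a hypoxia-response element, measured after 20 h of 100 µM DFO; z-scores per plate, higher means more signal lost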", "reading the numbers": "z-score: higher = stronger loss of HIF reporter signal", "note": "In all, the deposit lists about 21,000 reagents; shown is an unselected part of those that have a named target and a result. 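Primary screen; positive scores mean lost reporter signal, so the sign may be inverted from the usual convention.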 Not all columns of the deposit are shown."}
{"Target gene": "CG7872", "DRSC id": "DRSC20062", "z-score, replicate 1": -0.3}
{"Target gene": "CG8100", "DRSC id": "DRSC10961", "z-score, replicate 1": -0.3}
{"Target gene": "CG9004", "DRSC id": "DRSC08617", "z-score, replicate 1": 0.1}
{"Target gene": "alien", "DRSC id": "DRSC03482", "z-score, replicate 1": 2.4}
{"Target gene": "halo", "DRSC id": "DRSC00705", "z-score, replicate 1": -0.3}
{"Target gene": "Hen1 (Hen1 methyltransferase)", "DRSC id": "DRSC06139", "z-score, replicate 1": -0.2}
{"Target gene": "Hen1 (Hen1 methyltransferase)", "DRSC id": "DRSC06140", "z-score, replicate 1": -0.1}
{"Target gene": "ZnT49B (Zinc transporter 49B)", "DRSC id": "DRSC07225", "z-score, replicate 1": -0.4}
{"Target gene": "gprs", "DRSC id": "DRSC06761", "z-score, replicate 1": 0.4}
{"Target gene": "CG42566", "DRSC id": "DRSC03949", "z-score, replicate 1": -0.5}
{"Target gene": "CG17221", "DRSC id": "DRSC00487", "z-score, replicate 1": -0.1}
{"Target gene": "CG17764", "DRSC id": "DRSC18135", "z-score, replicate 1": -0.1}
{"Target gene": "eIF3c (eukaryotic translation initiation factor 3 subunit c)", "DRSC id": "DRSC06905", "z-score, replicate 1": 5.2}
{"Target gene": "CG12547", "DRSC id": "DRSC07759", "z-score, replicate 1": -0.3}
{"Target gene": "CG34126", "DRSC id": "DRSC02726", "z-score, replicate 1": -0.3}
{"Target gene": "CG12990", "DRSC id": "DRSC19510", "z-score, replicate 1": -0.3}
{"Target gene": "CG7945", "DRSC id": "DRSC10934", "z-score, replicate 1": -0.4}
{"Target gene": "CG6034", "DRSC id": "DRSC10572", "z-score, replicate 1": -0.1}
{"Target gene": "Ptx1", "DRSC id": "DRSC16804", "z-score, replicate 1": 0}
{"Target gene": "CG30403", "DRSC id": "DRSC03889", "z-score, replicate 1": -0.8}
{"Target gene": "Dhc64C (Dynein heavy chain 64C)", "DRSC id": "DRSC08656", "z-score, replicate 1": -0.3}
{"Target gene": "Mad", "DRSC id": "DRSC00759", "z-score, replicate 1": -0.3}
{"Target gene": "CG6695", "DRSC id": "DRSC16098", "z-score, replicate 1": -0.2}
{"Target gene": "CG2898", "DRSC id": "DRSC18238", "z-score, replicate 1": -0.1}
{"Target gene": "Rrp40 (Ribosomal RNA processing 40)", "DRSC id": "DRSC00074", "z-score, replicate 1": -0.4}
{"Target gene": "CG7218", "DRSC id": "DRSC16216", "z-score, replicate 1": -0.3}
{"Target gene": "CG42663", "DRSC id": "DRSC06158", "z-score, replicate 1": -0.6}
{"Target gene": "CG42663", "DRSC id": "DRSC06404", "z-score, replicate 1": -0.3}
{"Target gene": "Ret (Ret oncogene)", "DRSC id": "DRSC03409", "z-score, replicate 1": -0.3}
{"Target gene": "Ret (Ret oncogene)", "DRSC id": "DRSC03410", "z-score, replicate 1": -0.1}
{"Target gene": "Tfb4 (Transcription factor B4)", "DRSC id": "DRSC00675", "z-score, replicate 1": -0.2}
{"Target gene": "robo3 (roundabout 3)", "DRSC id": "DRSC00374", "z-score, replicate 1": -0.2}
{"Target gene": "robo3 (roundabout 3)", "DRSC id": "DRSC00375", "z-score, replicate 1": -0.1}
{"Target gene": "robo3 (roundabout 3)", "DRSC id": "DRSC00684", "z-score, replicate 1": -0.3}
{"Target gene": "CG1324", "DRSC id": "DRSC20496", "z-score, replicate 1": -0.1}
{"Target gene": "Or30a (Odorant receptor 30a)", "DRSC id": "DRSC03385", "z-score, replicate 1": -0.4}
{"Target gene": "ND-B15 (NADH dehydrogenase (ubiquinone) B15 subunit)", "DRSC id": "DRSC06199", "z-score, replicate 1": 0}
{"Target gene": "CG42538", "DRSC id": "DRSC09412", "z-score, replicate 1": 0.6}
{"Target gene": "CG5013", "DRSC id": "DRSC15695", "z-score, replicate 1": -0.5}
{"Target gene": "otu (ovarian tumor)", "DRSC id": "DRSC18811", "z-score, replicate 1": -0.3}

Entries above whose target name starts with R or r:
{"Target gene": "Rrp40 (Ribosomal RNA processing 40)", "DRSC id": "DRSC00074", "z-score, replicate 1": -0.4}
{"Target gene": "Ret (Ret oncogene)", "DRSC id": "DRSC03409", "z-score, replicate 1": -0.3}
{"Target gene": "Ret (Ret oncogene)", "DRSC id": "DRSC03410", "z-score, replicate 1": -0.1}
{"Target gene": "robo3 (roundabout 3)", "DRSC id": "DRSC00374", "z-score, replicate 1": -0.2}
{"Target gene": "robo3 (roundabout 3)", "DRSC id": "DRSC00375", "z-score, replicate 1": -0.1}
{"Target gene": "robo3 (roundabout 3)", "DRSC id": "DRSC00684", "z-score, replicate 1": -0.3}
